The numbers were not newly measured in patent US8183246B2, “Acyclically substituted furopyrimidine derivatives and use thereof” (Bayer Intellectual Property GmbH, priority 2005, dated 2012), which cites them from elsewhere.

The conditions of this data set: rapid non-enzymatic transformation to 6-keto-prostaglandin-F1alpha; cited from earlier work.

For the compound `CCCCC[C@H](O)/C=C/[C@@H]1[C@H]2C/C(=C/CCCC(=O)O)O[C@H]2C[C@H]1O` [PGI2, Prostacyclin], the half-life result is recorded as “approx. 3 minutes”.
